Test results as given in patent US7517658B2, “Methods for preparing compositions using a SNORF33 receptor” (H. Lundbeck A/S, priority 1999, dated 2009).

By UniProt entry, the sequences of proteins in these tests, tags left out.
UniProt Q923Y9, whole entry: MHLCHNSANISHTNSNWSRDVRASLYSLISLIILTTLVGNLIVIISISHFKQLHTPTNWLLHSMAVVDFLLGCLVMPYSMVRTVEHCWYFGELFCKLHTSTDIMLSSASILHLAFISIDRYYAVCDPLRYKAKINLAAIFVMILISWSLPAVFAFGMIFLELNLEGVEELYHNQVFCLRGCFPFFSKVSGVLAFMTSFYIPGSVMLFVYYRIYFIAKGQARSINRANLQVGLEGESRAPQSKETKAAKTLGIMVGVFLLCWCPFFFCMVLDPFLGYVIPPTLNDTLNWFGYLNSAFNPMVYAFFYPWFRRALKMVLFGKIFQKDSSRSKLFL

Target: rSNORF33 (Rattus norvegicus, UniProt Q923Y9)
Test: Intracellular cAMP release in rSNORF33-transfected COS-7 cells
Type: cell-based
Design: expressed in transfected cells; host or cells: COS-7 (transient)
Conditions: transiently transfected COS-7 cells; 3–8 experiments; read-out: Mean EC50 ± S.E.M., stimulation of rSNORF33 measured by intracellular cAMP release
Procedure: The receptor-mediated stimulation or inhibition of cyclic AMP (cAMP) formation may be assayed in cells expressing the mammalian receptors. Cells are plated in 96-well plates or other vessels and preincubated in a buffer such as HEPES buffered saline (NaCl (150 mM), CaCl2 (1 mM), KCl (5 mM), glucose (10 mM)) supplemented with a phosphodiesterase inhibitor such as 5 mM theophylline, with or without protease inhibitor cocktail (For example, a typical inhibitor cocktail contains 2 μg/ml aprotinin, […] leupeptin, and 10 μg/ml phosphoramidon.) for 20 min at 37° C., in 5% CO2. Test compounds are added with or without […] forskolin and incubated for an additional 10 min at 37° C. The medium is then aspirated and the reaction stopped by the addition of 100 mM HCl or other methods. The plates are stored at 4° C. for 15 min, and the cAMP content in the stopping solution is measured by radioimmunoassay. Radioactivity may be quantified using a gamma counter equipped with data reduction software. […]
COS-7 cells were transiently transfected with rSNORF33 gene using the calcium phosphate method and plated in 96-well plates. […] For cAMP measurement, plates were thawed and the cAMP content in each well was measured by radioimmunoassay cAMP Scintillation Proximity Assay (Amersham Pharmacia Biotech). Radioactivity was quantified using microbeta Trilux counter (Wallac).

CNCCC(Oc1ccc(C(F)(F)F)cc1)c1ccccc1 (stereo not shown) [Fluoxetine]
EC50: 5.52 ± 3.52 µM
